Data as given in article PMC5009064.

The chains behind the UniProt entries cited, without tags or fusion partners.
UniProt Q96EP0: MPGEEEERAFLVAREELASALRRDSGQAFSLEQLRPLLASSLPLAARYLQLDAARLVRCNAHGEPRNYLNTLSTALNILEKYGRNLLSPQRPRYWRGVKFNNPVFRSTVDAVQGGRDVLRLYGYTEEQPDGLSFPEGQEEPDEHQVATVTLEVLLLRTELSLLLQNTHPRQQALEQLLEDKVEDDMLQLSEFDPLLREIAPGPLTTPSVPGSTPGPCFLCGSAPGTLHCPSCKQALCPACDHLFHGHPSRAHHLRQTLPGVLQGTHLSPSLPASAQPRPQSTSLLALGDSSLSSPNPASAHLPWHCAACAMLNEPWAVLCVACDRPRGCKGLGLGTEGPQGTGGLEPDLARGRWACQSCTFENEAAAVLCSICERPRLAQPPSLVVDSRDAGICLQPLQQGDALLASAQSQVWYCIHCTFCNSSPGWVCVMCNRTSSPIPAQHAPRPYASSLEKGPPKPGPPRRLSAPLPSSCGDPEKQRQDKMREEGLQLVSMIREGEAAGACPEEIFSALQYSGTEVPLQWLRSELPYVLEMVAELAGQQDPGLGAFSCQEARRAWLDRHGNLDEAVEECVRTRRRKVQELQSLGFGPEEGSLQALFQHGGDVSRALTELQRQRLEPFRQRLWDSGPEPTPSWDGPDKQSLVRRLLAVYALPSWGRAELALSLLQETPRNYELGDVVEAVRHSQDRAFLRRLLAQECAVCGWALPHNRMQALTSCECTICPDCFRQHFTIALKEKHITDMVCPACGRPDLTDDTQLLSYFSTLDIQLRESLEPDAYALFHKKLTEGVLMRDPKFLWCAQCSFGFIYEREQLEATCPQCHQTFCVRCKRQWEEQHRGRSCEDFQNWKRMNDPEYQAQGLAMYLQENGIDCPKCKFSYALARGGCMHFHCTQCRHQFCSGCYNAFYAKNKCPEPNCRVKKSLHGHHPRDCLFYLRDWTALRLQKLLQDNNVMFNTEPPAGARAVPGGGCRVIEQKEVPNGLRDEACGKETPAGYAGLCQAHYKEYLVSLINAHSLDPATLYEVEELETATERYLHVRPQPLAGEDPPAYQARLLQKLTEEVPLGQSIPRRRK

B1: SHARPIN (protein, UniProt Q9H0F6 1-387)
chain: MAPPAGGAAAAASDLGSAAVLLAVHAAVRPLGAGPDAEAQLRRLQLSADPERPGRFRLELLGAGPGAVNLEWPLESVSYTIRGPTQHELQPPPGGPGTLSLHFLNPQEAQRWAVLVRGATVEGQNGSKSNSPPALGPEACPVSLPSPPEASTLKGPPPEADLPRSPGNLTEREELAGSLARAIAGGDEKGAAQVAAVLAQHRVALSVQLQEACFPPGPIRLQVTLEDAASAASAASSAHVALQVHPHCTVAALQEQVFSELGFPPAVQRWVIGRCLCVPERSLASYGVRQDGDPAFLYLLSAPREAPATGPSPQHPQKMDGELGRLFPPSLGLPPGPQPAASSLPSPLQPSWSCPSCTFINAPDRPGCEMCSTQRPCTWDPLAAAST
B2: SPATA2 (protein, UniProt Q9UM82 1-520)
chain: MGKPSSMDTKFKDDLFRKYVQFHESKVDTTTSRQRPGSDECLRVAASTLLSLHKVDPFYRFRLIQFYEVVESSLRSLSSSSLRALHGAFSMLETVGINLFLYPWKKEFRSIKTYTGPFVYYVKSTLLEEDIRAILSCMGYTPELGTAYKLRELVETLQVKMVSFELFLAKVECEQMLEIHSQVKDKGYSELDIVSERKSSAEDVRGCSDALRRRAEGREHLTASMSRVALQKSASERAAKDYYKPRVTKPSRSVDAYDSYWESRKPPLKASLSLRKEPVATDVGDDLKDEIIRPSPSLLTMASSPHGSPDVLPPASPSNGPALLRGTYFSTQDDVDLYTDSEPRATYRRQDALRPDVWLLRNDAHSLYHKRSPPAKESALSKCQSCGLSCSSSLCQRCDSLLTCPPASKPSAFPSKASTHDSLAHGASLREKYPGQTQGLDRLPHLHSKSKPSTTPTSRCGFCNRPGATNTCTQCSKVSCDACLSAYHYDPCYKKSELHKFMPNNQLNYKSTQLSHLVYR

Target: TAP-tagged wild-type HOIP (UniProt Q96EP0)
Test: affinity purification with mass spectrometry; modified tandem affinity purification of HOIP-TAP from reconstituted HOIP-deficient K562 cells; nLC-MS/MS

Binder | binding
B1 | binds
B2 | binds

No constants are given. Whether binding was seen depends on the method and setting. In cells and extracts the contact can be indirect. A yes stands for co-enrichment or nearness to the bait. Other partners may have been found.
